Structures are written as SMILES. Records with an inconclusive call do not appear.

The experiment relates to MX-1 breast xenograft, nude mice, tumor weight T/C. Briefly: NCI In Vivo Anticancer Drug Screen. Data for tumor model Human Mammary Carcinoma MX-1 Xenograft (intrarenal inoculation) in NU/NU Swiss (nude) mice. The conditions noted are these: endpoint: mean tumor weight change, schedule: Q01DX010 (sc), vehicle: Klucel (hydroxypropylcellulose) (HPC), higher = larger tumour. As for the experimental part:
The antitumor activity of compounds was measured in mice bearing transplantable tumors. Survival or tumor size were measured and the results are expressed as the measurement made in the treated group (T) divided by the measurement made in the vehicle treated control group (C). The tumor model used in this assay is Human Mammary Carcinoma MX-1 Xenograft (intrarenal inoculation) in NU/NU Swiss (nude) mice
On the technique in general: In xenograft studies the graft and the host belong to different species.

Consider `COc1cc2c(c(OC)c1OC)-c1ccc(OC)c(=O)cc1[C@@H](N)CC2`, for which the T/C is 120 % of control (dose: 0.63 mg/kg/injection), 65 % of control (dose: 1.25 mg/kg/injection), 48 % of control (dose: 2.5 mg/kg/injection) and 60 % of control (dose: 5.0 mg/kg/injection).
